Our source for the binding values is publication PMC9647545.

Sequences of proteins named here, by UniProt entry; tags and fusion partners are left off. A change or cut given only in a name is not applied to a line headed by its entry.
UniProt P20489: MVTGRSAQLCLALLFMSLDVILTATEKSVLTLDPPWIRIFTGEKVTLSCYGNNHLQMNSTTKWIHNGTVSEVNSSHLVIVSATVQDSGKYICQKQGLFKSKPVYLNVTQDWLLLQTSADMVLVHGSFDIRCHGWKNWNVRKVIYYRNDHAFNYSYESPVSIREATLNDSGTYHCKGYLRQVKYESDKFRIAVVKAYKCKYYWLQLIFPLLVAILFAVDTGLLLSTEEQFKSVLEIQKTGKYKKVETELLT
UniProt P20490: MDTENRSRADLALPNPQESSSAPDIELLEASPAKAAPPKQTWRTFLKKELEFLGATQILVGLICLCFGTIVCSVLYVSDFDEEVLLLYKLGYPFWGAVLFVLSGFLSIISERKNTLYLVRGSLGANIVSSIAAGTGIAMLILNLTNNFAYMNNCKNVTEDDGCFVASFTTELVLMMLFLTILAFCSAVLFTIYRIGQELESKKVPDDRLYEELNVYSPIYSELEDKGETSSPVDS
UniProt P20491: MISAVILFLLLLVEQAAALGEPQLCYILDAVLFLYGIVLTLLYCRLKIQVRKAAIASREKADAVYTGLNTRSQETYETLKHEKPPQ

Results are given in words; binding and its absence hold for the method and conditions named. Binding seen in cells or lysates may run through a third protein.

In this assay the target is FcεRI (mouse (endogenous in BMMCs)) (UniProt P20489+P20490+P20491). The assay is described as follows: co-IP; co-immunoprecipitation experiments of IRAP and FcεRI told only in the discussion; no data shown, no details.

B1: Insulin-regulated aminopeptidase (protein, UniProt Q8C129 1-1025)
chain: MESFTNDRLQLPRNMIENSMFEEEPDVVDLAKEPCLHPLEPDEVEYEPRGSRLLVRGLGEHEMDEDEEDYESSAKLLGMSFMNRSSGLRNSAAGYRQSPDGTCSLPSARTLVICVFVIVVAVSVIMVIYLLPRCTFTKEGCHKTNQSAELIQPVATNGKVFPWAQIRLPTAIIPLCYELSLHPNLTSMTFRGSVTISLQALQDTRDIILHSTGHNISRVTFMSAVSSQEKQVEILEYPYHEQIAVVAPEPLLTGHNYTLKIEYSANISNSYYGFYGITYTDKSNEKKYFAATQFEPLAARSAFPCFDEPAFKATFIIKITRNEHHTALSNMPKKSSVPAEEGLIQDEFSESVKMSTYLVAFIVGEMRNLSQDVNGTLVSVYAVPEKIGQVHHALDTTIKLLEFYQTYFEIQYPLKKLDLVAIPDFEAGAMENWGLLTFREETLLYDNATSSVADRKLVTKIIAHELAHQWFGNLVTMQWWNDLWLNEGFATFMEYFSVEKIFKELNSYEDFLDARFKTMRKDSLNSSHPISSSVQSSEQIEEMFDSLSYFKGASLLLMLKSYLSEDVFRHAVILYLHNHSYAAIQSDDLWDSFNEVTDKTLDVKKMMKTWTLQKGFPLVTVQRKGTELLLQQERFFLRMQPESQPSDTSHLWHIPISYVTDGRNYSEYRSVSLLDKKSDVINLTEQVQWVKVNSNMTGYYIVHYAHDDWTALINQLKRNPYVLSDKDRANLINNIFELAGLGKVPLRMAFDLIDYLKNETHTAPITEALFQTNLIYNLLEKLGHMDLSSRLVARVHKLLQNQIQQQTWTDEGTPSMRELRSALLEFACAHSLENCTTMATNLFDSWMASNGTQSLPTDVMVTVFKVGARTEKGWLFLFSMYSSMGSEAEKNKILEALASSEDVHKLYWLMKSSLDGDIIRTQKLSLIIRTVGRHFPGHLLAWDFVKENWNKLVHKFHLGSYTIQSIVAGSTHLFSTKTHLSEVQAFFENQSEATLKLRCVQEALEVIQLNIQWMVRNLKTLSQWL
Take B1: the binding result is “no binding”.
